Results taken from PMC9499397.
These are yes or no findings as the source states them, for the method shown. In cells and extracts the contact can be indirect. Some binding calls cover weakened binding; strength is not graded here.

Protein sequences, listed by entry. Tags and fused reporters are not part of them.
UniProt Q7TNF0: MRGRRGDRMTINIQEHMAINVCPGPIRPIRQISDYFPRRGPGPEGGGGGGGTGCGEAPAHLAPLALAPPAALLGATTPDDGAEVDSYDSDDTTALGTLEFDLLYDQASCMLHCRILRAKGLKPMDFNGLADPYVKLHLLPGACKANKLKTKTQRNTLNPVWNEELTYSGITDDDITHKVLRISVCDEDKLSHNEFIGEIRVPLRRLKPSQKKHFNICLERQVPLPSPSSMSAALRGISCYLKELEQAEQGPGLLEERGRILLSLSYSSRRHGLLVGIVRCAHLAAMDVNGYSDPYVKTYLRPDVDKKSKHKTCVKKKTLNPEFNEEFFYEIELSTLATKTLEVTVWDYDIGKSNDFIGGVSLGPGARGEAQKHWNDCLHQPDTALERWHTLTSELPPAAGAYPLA
UniProt Q9Z1N9: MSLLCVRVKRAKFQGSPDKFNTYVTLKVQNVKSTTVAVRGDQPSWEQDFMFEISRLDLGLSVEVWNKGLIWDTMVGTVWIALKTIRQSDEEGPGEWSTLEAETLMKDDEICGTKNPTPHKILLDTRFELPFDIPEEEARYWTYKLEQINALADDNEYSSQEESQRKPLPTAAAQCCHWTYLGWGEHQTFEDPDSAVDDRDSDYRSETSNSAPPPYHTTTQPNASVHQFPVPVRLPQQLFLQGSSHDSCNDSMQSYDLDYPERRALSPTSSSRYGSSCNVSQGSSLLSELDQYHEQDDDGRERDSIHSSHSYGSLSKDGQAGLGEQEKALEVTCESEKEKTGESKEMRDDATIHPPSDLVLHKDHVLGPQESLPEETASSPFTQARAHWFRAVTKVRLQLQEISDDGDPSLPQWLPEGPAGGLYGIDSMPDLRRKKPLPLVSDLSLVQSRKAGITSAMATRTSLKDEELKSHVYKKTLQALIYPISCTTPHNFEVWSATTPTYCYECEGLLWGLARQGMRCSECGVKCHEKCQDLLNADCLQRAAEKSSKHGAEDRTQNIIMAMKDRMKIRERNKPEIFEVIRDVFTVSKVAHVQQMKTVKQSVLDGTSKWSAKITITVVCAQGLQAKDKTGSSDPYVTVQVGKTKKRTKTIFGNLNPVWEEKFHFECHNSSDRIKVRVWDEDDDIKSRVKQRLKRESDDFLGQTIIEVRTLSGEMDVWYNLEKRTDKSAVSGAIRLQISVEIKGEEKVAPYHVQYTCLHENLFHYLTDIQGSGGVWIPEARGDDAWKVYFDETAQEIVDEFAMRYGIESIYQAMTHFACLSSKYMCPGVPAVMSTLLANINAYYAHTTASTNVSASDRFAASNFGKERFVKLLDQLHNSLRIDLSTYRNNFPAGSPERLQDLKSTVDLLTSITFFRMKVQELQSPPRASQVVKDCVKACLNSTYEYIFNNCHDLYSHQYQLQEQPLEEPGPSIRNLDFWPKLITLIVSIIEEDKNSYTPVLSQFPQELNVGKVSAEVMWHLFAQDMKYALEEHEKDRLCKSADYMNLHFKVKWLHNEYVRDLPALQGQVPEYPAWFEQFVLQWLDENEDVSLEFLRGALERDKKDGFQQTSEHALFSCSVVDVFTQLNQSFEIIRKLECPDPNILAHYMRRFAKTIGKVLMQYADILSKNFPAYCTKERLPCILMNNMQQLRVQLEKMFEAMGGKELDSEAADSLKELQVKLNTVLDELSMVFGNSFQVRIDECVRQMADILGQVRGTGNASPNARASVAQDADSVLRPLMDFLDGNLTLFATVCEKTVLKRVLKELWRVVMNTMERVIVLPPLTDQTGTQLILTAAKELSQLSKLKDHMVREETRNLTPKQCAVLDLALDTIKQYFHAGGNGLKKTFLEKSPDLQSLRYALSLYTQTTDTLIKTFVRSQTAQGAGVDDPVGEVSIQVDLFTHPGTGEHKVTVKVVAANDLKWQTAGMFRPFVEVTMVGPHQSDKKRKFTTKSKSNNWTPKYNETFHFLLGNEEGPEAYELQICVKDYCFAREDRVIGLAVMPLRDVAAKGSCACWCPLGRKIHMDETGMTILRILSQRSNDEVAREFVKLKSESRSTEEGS

Biological target: Double C2 domain alpha (DOC2A) (UniProt Q7TNF0)
Experiment: co-IP; co-immunoprecipitation (CO-IP), Figure 7K,L; sample, bait and conditions not described

binding: binds
Substance: unc-13 homolog B (UNC13B) (from UniProt Q9Z1N9 1-1602)
